According to the supplement of paper PMC5949888:
Most values lie at the floor of the assay. Slopes are relative: functional sequences can read slightly below zero.

Each substance was assayed on Saccharomyces cerevisiae PS128 hsf1 delta, HSF1(1-493) fusion (assay: growth estimate (transactivation domain function in HSF1 fusion, heat-shock survival) (a.u. (slope of normalised read count over time)); higher = stronger growth at 37°C, i.e. more transactivation activity). Conditions: library: random library.
Procedure: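 Random 60-nt DNA library encoding peptides of up to 20 aa, fused to the C-terminus of yeast HSF1 residues 1-493 (C-terminal TAD deleted) and expressed from the native HSF1 promoter on a CEN plasmid in hsf1-deleted S. cerevisiae PS128. Cells were selected at 37°C on -trp 5-FOA plates for 0, 2, 4, 6 and 8 days and amplicons were sequenced. Growth estimate is the slope of a robust linear fit of total-sum-normalised read counts (normalised to the first time point) over time, using at least 2 replicates. Sequences are classed functional (TAD activity) above a threshold of -0.13, set from stop-codon control sequences.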

| Substance | growth estimate |
| --- | --- |
| KSACMKNFVVSRSV | < -0.25 |
| YELLSLRSRTSRPPTI | -0.243 |
| KCRGVQTCCTGANEEARYSR | < -0.25 |
| AIARGA | < -0.25 |
| EAAGGVTHGLGGRQGKSSP | < -0.25 |
| RLAG | < -0.25 |
| VFPMTQK | < -0.25 |
| REQG | < -0.25 |
| SLHGPLGAG | < -0.25 |
| WVSELESPSTQVRAKCP | < -0.25 |
| VGVVTDRGVELG | < -0.25 |
| SQSVPMALAIILCSSRRLIH | < -0.25 |
| RTP | < -0.25 |
| RIRAATKTE | < -0.25 |
| RTT | < -0.25 |
| RHWLTCREINLPCYWYLSGS | < -0.25 |
| DNW | < -0.25 |
| SSAPGRSRVRGSDQRPPLIC | < -0.25 |
| CLPRVEEVR | < -0.25 |
| PRFLTQKGYCSVEGHWQIIK | < -0.25 |
| GKKPRAYGP | < -0.25 |
| TRYALLSPQKRFRSVR | < -0.25 |
| RRCSGRRG | < -0.25 |
| VRIERQRT | < -0.25 |

| Substance | growth estimate |
| --- | --- |
| ILDMKSPHLRQHGKSGPPPW | < -0.25 |
| CVN | < -0.25 |
| PASLPTALQWQGSIYGSLF | -0.152 |
| SDPSPGRLSGKSPVKIPKKI | < -0.25 |
| TLYGLFRNLLGFDDQKRYDA | < -0.25 |
| ICEICTFVNIIVSIMRGGGS | < -0.25 |
| DYGARNHSDVTISA | < -0.25 |
| ILSPNRLLGWRRPEAGGY | < -0.25 |
| TEGEAGLD | < -0.25 |
| GSS | < -0.25 |
| RCAITVCRTGWSAPRYTCTG | < -0.25 |
| QLRAGIRCVV | < -0.25 |
| PDIRLKRAETYGMDCKECCS | < -0.25 |
| SRHGAAIVGLLVYEGTLRSE | < -0.25 |
| IARRGRPRSHPTSLQYQGGR | < -0.25 |
| DGHQRRSASTCGASPGIGAN | < -0.25 |
| PGLES | < -0.25 |
| VGGLWREW | < -0.25 |
| CRRKNPSATLTF | < -0.25 |
| GYNMRLTLASGGNNPVLTNP | < -0.25 |
| PSMHIVP | < -0.25 |
| VVAPLHKRGKREWLDSILVK | < -0.25 |
| SKFRNYTGISENLSVSRLMD | < -0.25 |
| EGWAGKRYGVA | < -0.25 |

2 entries from above, tab-delimited:
Substance	growth estimate
VGVVTDRGVELG	< -0.25
PSMHIVP	< -0.25

As entered above.
EGWAGKRYGVA – growth estimate: < -0.25
DYGARNHSDVTISA – growth estimate: < -0.25

(cont.)

| Substance | growth estimate |
| --- | --- |
| EVIGSGQALGYRPNRDMVTL | < -0.25 |
| FWPTCVRAHSAWSCKGYFWK | < -0.25 |
| WMARVSAMSTEQALSTCWKS | < -0.25 |
| RSPYAVSEITGRFAIRM | < -0.25 |
| LGVKSIEEKLR | < -0.25 |
| DRAGANDLAGGHQLLAEFYL | < -0.25 |
| RWRLNKS | < -0.25 |
| RTLSRIERGRATMLETGLVW | < -0.25 |
| SPGHHSSPGRRGGLSTLSCA | < -0.25 |
| DTFTWGCLWWIKKMSGVILI | < -0.25 |
| LHHQAPGVIYVARVGVG | < -0.25 |
| GLGDFVPVRLVLGSNGLPLH | < -0.25 |
| YGQVSLESIGRGLAKR | < -0.25 |
| VKGHYWQS | < -0.25 |
| LMSVSRLQLFSVARLASFVT | < -0.25 |
| VGHSSVIVRKTVRSHSLRRL | < -0.25 |
| ASRSTQGKRYAEYDRLEYQS | < -0.25 |
| VEKV | < -0.25 |
| RASLGNRFL | < -0.25 |
| RSLSCSARRSPHVPQGDHGH | < -0.25 |
| SYRIVCCTDGIALSVLMTVP | < -0.25 |
| PQCLPAFNGTPSGKTNRQSF | < -0.25 |
| VPTHERYPTSGGGVAQNTTT | < -0.25 |
| VEHFH | < -0.25 |

| Substance | growth estimate |
| --- | --- |
| LRDQRPKRLPVLINYIAKSA | < -0.25 |
| FSR | -0.246 |
| RKGEF | < -0.25 |
| GPWLHGWRKSLVSEA | < -0.25 |
| TTN | < -0.25 |
| LLPGAYPISFRSDR | < -0.25 |
| KKNRSMRQDLNLAFQARVTV | < -0.25 |
| LRGPASTIKQSGTWANEMSA | < -0.25 |
| NRVNGTAIRTPNRRSHWVRS | < -0.25 |
| KRGPHCGRTHLGTVRI | -0.245 |
| AAWLRYTIRA | < -0.25 |
| LTIVLGQIG | < -0.25 |
| VVVQSLKRRL | -0.238 |
| RQL | < -0.25 |
| GSETWTGCKTREQN | < -0.25 |
| RSLHGHEARSHKRGRTHEAI | < -0.25 |
| AAGLVQIAPGYPA | < -0.25 |
| GKVSLSRRDKLVGALRDPFV | < -0.25 |
| SVEARGRTCPVGTR | < -0.25 |
| SSETTRRRQ | < -0.25 |
| GNFLRNLIRRIRRFARCRDE | < -0.25 |
| DVCEFLT | < -0.25 |
| LPPGNANPKGLILRGSLNGT | < -0.25 |
| PKVEFCRALRSDLSRRLGSG | < -0.25 |

| Substance | growth estimate |
| --- | --- |
| QPRGR | < -0.25 |
| ILARCYGGNQSVRELHALME | < -0.25 |
| SGTNEGEFEERKGSIPLYGP | < -0.25 |
| LETHSGTYAPHGVSPTVSRI | < -0.25 |
| ALRSMRVNGGRPFWSDRAEH | < -0.25 |
| GSACFLPLPLPLHWRNLDSG | < -0.25 |
| DLSWDQLAVIEPRFALKGPG | < -0.25 |
| PTLSCMARSIGTRHRCEQFR | < -0.25 |
| IATKTKFGACSATIGLESMR | < -0.25 |
| VPSTAQRRWRGTGSAPGS | < -0.25 |
| CVCHCHEVYRE | < -0.25 |
| THLLAIASEVKVSLPGSART | < -0.25 |
| GGSGINK | < -0.25 |
| SSISTAPYDARLLCLRTCCS | < -0.25 |
| GYILCG | < -0.25 |
| AQPNCVENAESGLLHQFEPC | < -0.25 |
| SILVYGIPYLFLCKTVILDG | < -0.25 |
| IRSDALADHRVSRDVSCTGT | < -0.25 |
| VGHRWIRYTDSGWSRASGNC | < -0.25 |
| EGSRPGCARIISYRFSLYRM | < -0.25 |
| AIP | < -0.25 |
| SRSNITYLTK | < -0.25 |
| GRIRHGGGKPRQKIDV | < -0.25 |
| MSLRGSPNGRTLV | < -0.25 |

| Substance | growth estimate |
| --- | --- |
| LESWKELTR | < -0.25 |
| SAIYTHAITADTKGHPPRQR | < -0.25 |
| PLYLDQVPPGG | -0.245 |
| RQTS | < -0.25 |
| KHMGREEISVMWVGPLQGLG | < -0.25 |
| RIYGSASGRITGTWTELTGT | < -0.25 |
| YAERT | < -0.25 |
| VYGRTARCGRATRCYHSLSS | < -0.25 |
| FVKQAASRFLYELSVS | < -0.25 |
| TLHTMS | < -0.25 |
| RSGHNSGCSFVLGQVD | < -0.25 |
| TAIDSRRQVRWGSANGRMSH | < -0.25 |
| SLGGSGQRIWGPIYVAASRP | < -0.25 |
| DDFGIRRGVRSPRHLSIFYP | < -0.25 |
| EMRLSHFVVRIWVVTHIQQT | < -0.25 |
| PHVISSACGVTSPRFRPEGP | < -0.25 |
| GSFA | < -0.25 |
| EMQR | < -0.25 |
| ICLLAAPGVCELYTGAVYDG | < -0.25 |
| TTVDEQPRIKSTCGNCLCWT | 0.548 |
| WAQVAGYSVGRRPVR | < -0.25 |
| VNPIHEDQHGIAGVYGPSGH | < -0.25 |
| QRFAASAGDF | < -0.25 |
| RSSKILNSRRLVGHRVTRKM | < -0.25 |

| Substance | growth estimate |
| --- | --- |
| WAITLVIHCMGLKQR | < -0.25 |
| TSNIAHFYHSLIRRSN | < -0.25 |
| GSTTSKFKGGIDLAARPDSA | -0.231 |
| LALDKKIRSLVHLNTTYKQQ | < -0.25 |
| RNGGDALGVVDGRQTVCL | < -0.25 |
| TQTILQRQ | < -0.25 |
| PRIAHYADRSRGY | < -0.25 |
| AGDS | < -0.25 |
| RRLVGNGLGLRCNKSRTIPN | < -0.25 |
| IEVLSRLGGHSGTAISLYAA | < -0.25 |
| MFKLAYGGAFAAEIRNLTGY | < -0.25 |
| IQLRNWRIGRIVAHLGSRSA | < -0.25 |
| QDYCRHGCEVQIH | < -0.25 |
| VGRAL | < -0.25 |
| SLIWGQIVIIPWHPLG | < -0.25 |
| FVGGLPRN | < -0.25 |
| LVDGRCTGGI | < -0.25 |
| EESVRCEIDLSFN | < -0.25 |
| LLTWVACVGTSRDRTMASSQ | < -0.25 |
| DAPEQSMNLSVSRQPVIDCA | < -0.25 |
| HGIRVQLWTMIISTRLCRCI | < -0.25 |
| GRPNERPLPSN | < -0.25 |
| HRRQAPLHASNLH | < -0.25 |
| DGER | < -0.25 |

Random excerpt: 3 entries already listed.

| Substance | growth estimate |
| --- | --- |
| LTIVLGQIG | < -0.25 |
| QRFAASAGDF | < -0.25 |
| AIP | < -0.25 |

Next part.

| Substance | growth estimate |
| --- | --- |
| TSIKEYGRDFMVHSVLAGRT | < -0.25 |
| TGQICGNVAHWGLRSPLGDV | < -0.25 |
| RGLKSVGSLATLRSIAPWTA | < -0.25 |
| VAEVSYTLLGRDTNLYGNVQ | -0.231 |
| DVN | < -0.25 |
| SFLGRHRNPWFSRGET | < -0.25 |
| KDL | < -0.25 |
| PRR | < -0.25 |
| NMESK | < -0.25 |
| HNPLGGSMKPHPSFKLGRGR | < -0.25 |
| RRPLGMGH | < -0.25 |
| PGLSKVPGGVSAWEQKRRGP | < -0.25 |
| EVKLGLIAPLACESFISWSQ | < -0.25 |
| GTTFHRVVGAGCYLEGPSFF | < -0.25 |
| VGAYKTSSTPARLVGIPMRS | < -0.25 |
| RKASR | < -0.25 |
| GLGCARSTRDRLRRLDV | < -0.25 |
| PWPQGVAVLEDGGCFM | < -0.25 |
| LLQLVEETPKSSVLTIVFRG | < -0.25 |
| KKLSDRDRPLRSGDGSCLGH | < -0.25 |
| IKAIPGPLESPPGRCERD | < -0.25 |
| EPSGDFTDHNG | < -0.25 |
